According to patent publication US20150299258A1 (UNIVERSITY OF TOKYO, published 2015):
These are yes or no findings as the source states them, for the method shown. Some binding calls cover weakened binding; strength is not graded here. For part of these data: Tags and fused reporters may be left off the sequences shown.

Amino acid sequences for entries named in this document (tags omitted). A change or cut given only in a name is not applied to a line headed by its entry.
UniProt P35968: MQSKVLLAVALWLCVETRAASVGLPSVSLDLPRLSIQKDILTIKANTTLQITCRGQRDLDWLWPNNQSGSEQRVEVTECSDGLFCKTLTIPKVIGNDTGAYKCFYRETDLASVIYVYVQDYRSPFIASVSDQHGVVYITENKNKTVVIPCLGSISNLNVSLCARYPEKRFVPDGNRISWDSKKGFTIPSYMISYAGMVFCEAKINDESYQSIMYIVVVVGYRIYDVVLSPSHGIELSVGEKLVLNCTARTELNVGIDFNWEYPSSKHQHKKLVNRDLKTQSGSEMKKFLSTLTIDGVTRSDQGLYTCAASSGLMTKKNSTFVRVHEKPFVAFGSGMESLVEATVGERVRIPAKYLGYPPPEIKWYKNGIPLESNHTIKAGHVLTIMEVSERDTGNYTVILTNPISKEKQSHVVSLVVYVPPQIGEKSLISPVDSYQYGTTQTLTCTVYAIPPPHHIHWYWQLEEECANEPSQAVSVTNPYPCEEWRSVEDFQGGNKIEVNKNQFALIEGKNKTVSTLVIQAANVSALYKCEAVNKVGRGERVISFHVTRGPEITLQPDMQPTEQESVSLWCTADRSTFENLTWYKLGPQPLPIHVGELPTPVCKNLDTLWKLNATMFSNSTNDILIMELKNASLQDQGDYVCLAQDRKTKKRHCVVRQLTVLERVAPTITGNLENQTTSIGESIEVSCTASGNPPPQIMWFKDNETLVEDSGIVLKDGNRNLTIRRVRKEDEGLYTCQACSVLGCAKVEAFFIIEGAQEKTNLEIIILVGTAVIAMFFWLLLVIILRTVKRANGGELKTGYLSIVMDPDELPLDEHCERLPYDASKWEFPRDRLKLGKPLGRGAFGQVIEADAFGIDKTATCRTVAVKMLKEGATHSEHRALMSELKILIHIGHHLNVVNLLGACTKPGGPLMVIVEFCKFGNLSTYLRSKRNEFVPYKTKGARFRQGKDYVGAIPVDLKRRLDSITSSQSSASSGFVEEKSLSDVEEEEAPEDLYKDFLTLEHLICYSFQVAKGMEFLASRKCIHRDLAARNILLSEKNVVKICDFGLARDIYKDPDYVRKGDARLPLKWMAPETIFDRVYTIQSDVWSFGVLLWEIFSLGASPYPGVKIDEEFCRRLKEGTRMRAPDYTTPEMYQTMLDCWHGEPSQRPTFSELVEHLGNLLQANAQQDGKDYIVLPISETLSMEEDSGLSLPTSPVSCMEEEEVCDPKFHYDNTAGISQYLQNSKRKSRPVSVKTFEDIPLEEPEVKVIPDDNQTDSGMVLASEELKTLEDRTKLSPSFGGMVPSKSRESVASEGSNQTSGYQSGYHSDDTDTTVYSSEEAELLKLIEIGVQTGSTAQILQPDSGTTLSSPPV

Key:
[1] = target: extracellular domain of VEGFR2 immobilized onto magnetic beads (Homo sapiens (Human)) (UniProt P35968); assay: TRAP display selection on immobilised VEGFR2, second optimisation of BL1
[2] = target: extracellular domain of VEGFR2 immobilized onto magnetic beads (Homo sapiens (Human)) (UniProt P35968); assay: TRAP display selection on VEGFR2, second optimization of BL1 (Xaa16 to Xaa20, Xaa26, Xaa29, Xaa30 randomized)
[3] = target: extracellular domain of VEGFR2 immobilized onto magnetic beads (Homo sapiens (Human)) (UniProt P35968); assay: TRAP display selection on VEGFR2 extracellular domain on magnetic beads
[4] = target: extracellular domain of VEGFR2 immobilized onto magnetic beads (Homo sapiens (Human)) (UniProt P35968); assay: TRAP display selection on immobilised VEGFR2, second optimisation of L1

FIGIYRVKVHPISLEPC (MCAB on N-terminal Phe, cyclised to the C-terminal Cys)
binding [1]: binds
binding [2]: binds

FIGPYRVKVHPVSLEYC (MCAB on N-terminal Phe, cyclised to the C-terminal Cys)
binding [1]: binds
binding [2]: binds

FVVVSTDPWVNGLYIDC (ClAc on N-terminal L-Phe, cyclised to the C-terminal Cys)
binding [3]: binds

FIGHYRVKVHPISLERC (MCAB on N-terminal L-Phe, cyclised to the C-terminal Cys)
binding [3]: binds

FHVTHQDPWVNGLWIAC (ClAc on N-terminal Phe, cyclised to the C-terminal Cys)
binding [4]: binds

FVVSHHDPWVNGLFIAC (ClAc on N-terminal Phe, cyclised to the C-terminal Cys)
binding [4]: binds

FVVVHADPWVNGLWIQC (ClAc on N-terminal Phe, cyclised to the C-terminal Cys)
binding [4]: binds

FVVKHPDPWVNGLYFHC (ClAc on N-terminal Phe, cyclised to the C-terminal Cys)
binding [4]: binds

FVVQHRDPWVNGLWFPC (ClAc on N-terminal Phe, cyclised to the C-terminal Cys)
binding [4]: binds

FSVVHSDPWVNGLYLSC (ClAc on N-terminal Phe, cyclised to the C-terminal Cys)
binding [4]: binds

FAVKHSDPWVNGLYLPC (ClAc on N-terminal Phe, cyclised to the C-terminal Cys)
binding [4]: binds

FSVTHIDPWVNGLYLPC (ClAc on N-terminal Phe, cyclised to the C-terminal Cys)
binding [4]: binds

FKVSHFDPWVNGLWLPC (ClAc on N-terminal Phe, cyclised to the C-terminal Cys)
binding [4]: binds

FTVTHRDPWVNGLILSC (ClAc on N-terminal Phe, cyclised to the C-terminal Cys)
binding [4]: binds

FQVSHPDPWVNGLILQC (ClAc on N-terminal Phe, cyclised to the C-terminal Cys)
binding [4]: binds

FTVYSDDPWVNGLWLRC (ClAc on N-terminal Phe, cyclised to the C-terminal Cys)
binding [4]: binds

FSVYGLDPWINGLRFVC (ClAc on N-terminal Phe, cyclised to the C-terminal Cys)
binding [4]: binds

FTVFHTDPWVNGLWISC (ClAc on N-terminal Phe, cyclised to the C-terminal Cys)
binding [4]: binds

FTVRHTDPWVNGLWISC (ClAc on N-terminal Phe, cyclised to the C-terminal Cys)
binding [4]: binds

FTVKHPDPWVNGLWISC (ClAc on N-terminal Phe, cyclised to the C-terminal Cys)
binding [4]: binds

FTVTHSDPWVNGLFLPC (ClAc on N-terminal Phe, cyclised to the C-terminal Cys)
binding [4]: binds

FVVTHPDPWVNGLFLPC (ClAc on N-terminal Phe, cyclised to the C-terminal Cys)
binding [4]: binds

FTVTHIDPWVNGLWLPC (ClAc on N-terminal Phe, cyclised to the C-terminal Cys)
binding [4]: binds

FTVVHADPWVNGLYLPC (ClAc on N-terminal Phe, cyclised to the C-terminal Cys)
binding [4]: binds

FTVVHSDPWVNGLWLPC (ClAc on N-terminal Phe, cyclised to the C-terminal Cys)
binding [4]: binds

FTVIHPDPWVNGLWLPC (ClAc on N-terminal Phe, cyclised to the C-terminal Cys)
binding [4]: binds

FIVSHPDPWVNGLWLPC (ClAc on N-terminal Phe, cyclised to the C-terminal Cys)
binding [4]: binds

FSVSHPDPWVNGLWLPC (ClAc on N-terminal Phe, cyclised to the C-terminal Cys)
binding [4]: binds

FEVSHPDPWVNGLWIPC (ClAc on N-terminal Phe, cyclised to the C-terminal Cys)
binding [4]: binds

FIVYHADPWVNGLWLSC (ClAc on N-terminal Phe, cyclised to the C-terminal Cys)
binding [4]: binds

FVVRHSDPWVNGLWIDC (ClAc on N-terminal Phe, cyclised to the C-terminal Cys)
binding [4]: binds

FVVYSSDPWVNGLHLTC (ClAc on N-terminal Phe, cyclised to the C-terminal Cys)
binding [4]: binds

FLNGYYVKVHPVSLEPC (MCAB on N-terminal Phe, cyclised to the C-terminal Cys)
binding [1]: binds

FLNGYRVKVHPISLEPC (MCAB on N-terminal Phe, cyclised to the C-terminal Cys)
binding [1]: binds

FVGPYAVKVHPISLSPC (MCAB on N-terminal Phe, cyclised to the C-terminal Cys)
binding [1]: binds

FVGHYRVKVHPISLLPC (MCAB on N-terminal Phe, cyclised to the C-terminal Cys)
binding [1]: binds

FIGAYKVKVHPISLQPC (MCAB on N-terminal Phe, cyclised to the C-terminal Cys)
binding [1]: binds

FLGPYRVKVHPISLHFC (MCAB on N-terminal Phe, cyclised to the C-terminal Cys)
binding [1]: binds

FIGPYLVKVHPVSLHFC (MCAB on N-terminal Phe, cyclised to the C-terminal Cys)
binding [1]: binds

FIGEYRVKVHPISLAPC (MCAB on N-terminal Phe, cyclised to the C-terminal Cys)
binding [1]: binds

FIGPYRVKVHPVSLLPC (MCAB on N-terminal Phe, cyclised to the C-terminal Cys)
binding [1]: binds

FIGIYRVKVHPVSLEPC (MCAB on N-terminal Phe, cyclised to the C-terminal Cys)
binding [1]: binds

FIGPYAVKVHPVSLEPC (MCAB on N-terminal Phe, cyclised to the C-terminal Cys)
binding [1]: binds

FIGTWVVKVHPVSLEPC (MCAB on N-terminal Phe, cyclised to the C-terminal Cys)
binding [1]: binds

FINSYVVKVHPISLEPC (MCAB on N-terminal Phe, cyclised to the C-terminal Cys)
binding [1]: binds

FILGYFVKVHPVSLDPC (MCAB on N-terminal Phe, cyclised to the C-terminal Cys)
binding [1]: binds

FYNGFAVKVHPISLENC (MCAB on N-terminal Phe, cyclised to the C-terminal Cys)
binding [1]: binds

FVNGYAVKVHPVSLEPC (MCAB on N-terminal Phe, cyclised to the C-terminal Cys)
binding [1]: binds

FVNGYIVKVHPVSLEPC (MCAB on N-terminal Phe, cyclised to the C-terminal Cys)
binding [1]: binds

FIYGFAVKVHPVSLEPC (MCAB on N-terminal Phe, cyclised to the C-terminal Cys)
binding [1]: binds

FIGIYRVKVHPISLEYC (MCAB on N-terminal Phe, cyclised to the C-terminal Cys)
binding [1]: binds

FIGIFRVKVHPISLEPC (MCAB on N-terminal Phe, cyclised to the C-terminal Cys)
binding [1]: binds

FIGRYAVKVHPISLEPC (MCAB on N-terminal Phe, cyclised to the C-terminal Cys)
binding [1]: binds

FIGPYWVKVHPISLLPC (MCAB on N-terminal Phe, cyclised to the C-terminal Cys)
binding [1]: binds

FIGPYHVKVHPVSLEPC (MCAB on N-terminal Phe, cyclised to the C-terminal Cys)
binding [1]: binds

FIGPWFVKVHPVSLEPC (MCAB on N-terminal Phe, cyclised to the C-terminal Cys)
binding [1]: binds

FIGPYRVKVHPISLEWC (MCAB on N-terminal Phe, cyclised to the C-terminal Cys)
binding [1]: binds

FVNGYRVKVHPISLDWC (MCAB on N-terminal Phe, cyclised to the C-terminal Cys)
binding [1]: binds
